Taken from: PubChem BioAssay AID602196 (INSERM, 2012)
This is a random part of about 23,000 reagents. 455 of all reagents (2%) were called active. 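Active includes both protection and sensitisation; some change values fall well beyond the stated -50 to +50 range.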 Further read-outs or replicates are left out here. Not given: the amount of reagent.

Assay: 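Knock-downs that protect lung cancer cells from cisplatin or sensitise them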
Cell system: human A549 lung cancer cells
Reagent: siRNA pair against human genes
Duration: 48 h transfection before cisplatin; time from cisplatin to read-out not stated
Treatment: cisplatin at a dose killing half of control-siRNA cells; exact dose and duration not given
Read-out: 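Cisplatin cell death as a shift from the 50% death seen with control siRNA; siRNAs toxic or growth-blocking alone scored 0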
Reading the numbers: two-siRNA summed score (-2 to +2): higher = both siRNAs protect from cisplatin killing; -2 means both sensitise
Hit rule: 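Each siRNA scores 0 if harmful alone by LDH or WST-1, otherwise +1 if it reduces and -1 if it increases cisplatin killing; a gene is active when both siRNAs agree (sum +2 or -2)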
Calls: active = both siRNAs shift cisplatin killing the same way; inactive = no consistent shift, or siRNA harmful alone

LARP4: two-siRNA summed score (-2 to +2) = 1; Call = inactive
LOC440159: two-siRNA summed score (-2 to +2) = 0; Call = inactive
SMARCC1: two-siRNA summed score (-2 to +2) = 0; Call = inactive
LOC388574: two-siRNA summed score (-2 to +2) = 1; Call = inactive
MORC3: two-siRNA summed score (-2 to +2) = 0; Call = inactive
SYT6: two-siRNA summed score (-2 to +2) = 1; Call = inactive
LOC400642: two-siRNA summed score (-2 to +2) = 1; Call = inactive
PPT2: two-siRNA summed score (-2 to +2) = 1; Call = inactive
CARS2: two-siRNA summed score (-2 to +2) = 1; Call = inactive
ASIC3: two-siRNA summed score (-2 to +2) = 0; Call = inactive
MRGPRX3: two-siRNA summed score (-2 to +2) = 0; Call = inactive
CEMIP: two-siRNA summed score (-2 to +2) = 0; Call = inactive
MED28: two-siRNA summed score (-2 to +2) = 0; Call = inactive
LCN9: two-siRNA summed score (-2 to +2) = 0; Call = inactive
PARS2: two-siRNA summed score (-2 to +2) = 0; Call = inactive
LINC01465: two-siRNA summed score (-2 to +2) = 0; Call = inactive
TRIM6: two-siRNA summed score (-2 to +2) = 1; Call = inactive
TSC22D4: two-siRNA summed score (-2 to +2) = 0; Call = inactive
LOC441490: two-siRNA summed score (-2 to +2) = 1; Call = inactive
SLC13A2: two-siRNA summed score (-2 to +2) = -1; Call = inactive
HEATR9: two-siRNA summed score (-2 to +2) = -1; Call = inactive
LOC440480: two-siRNA summed score (-2 to +2) = 0; Call = inactive
BICRA: two-siRNA summed score (-2 to +2) = 1; Call = inactive
LGALSL: two-siRNA summed score (-2 to +2) = 0; Call = inactive
LOC442730: two-siRNA summed score (-2 to +2) = 1; Call = inactive
G6PD: two-siRNA summed score (-2 to +2) = 0; Call = inactive
GINS4: two-siRNA summed score (-2 to +2) = 0; Call = inactive
LOC387873: two-siRNA summed score (-2 to +2) = 0; Call = inactive
GPC5: two-siRNA summed score (-2 to +2) = -1; Call = inactive
FARP1: two-siRNA summed score (-2 to +2) = 0; Call = inactive
LRG1: two-siRNA summed score (-2 to +2) = 0; Call = inactive
TNFAIP6: two-siRNA summed score (-2 to +2) = 0; Call = inactive
CDK10: two-siRNA summed score (-2 to +2) = 0; Call = inactive
DTX3: two-siRNA summed score (-2 to +2) = 1; Call = inactive
LOC400714: two-siRNA summed score (-2 to +2) = 0; Call = inactive
STGC3 (retired record): two-siRNA summed score (-2 to +2) = 0; Call = inactive
ARMC7: two-siRNA summed score (-2 to +2) = 0; Call = inactive
LOC401295: two-siRNA summed score (-2 to +2) = 0; Call = inactive
PCDHA11: two-siRNA summed score (-2 to +2) = 0; Call = inactive
LOC388142: two-siRNA summed score (-2 to +2) = 1; Call = inactive
